Taken from: PubChem BioAssay AID1259308 (NCATS, 2017)

Assay: 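Genes whose loss raises luciferase production in HEK293 cells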 (primary screen)
Cells: human HEK293 embryonic kidney cells stably expressing firefly luciferase (HEK-CMV-Luc2-Hygro)
Reagent: single siRNA against human genes, 0.8 pmol siRNA per well
Time to read-out: 72 h
Read-out: 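Luciferase light (ONE-Glo) measured on one replicate plate set and viability (CellTiter-Glo) on the other, scaled to a negative control siRNA, with robust z-scores and luciferase per cell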
Direction: total luciferase, z-score and total luciferase, % of control: higher = more reporter protein produced; luciferase per cell, z-score: higher = more reporter output per viable cell; viable cells, % of control: higher = more viable cells
Active means: 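An siRNA counts as active if its total luciferase robust z-score exceeds 3; genes with two or more such siRNAs out of three were retested with fresh siRNAs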
Calls: active = raised luciferase; inactive = no rise
In all, the deposit lists about 59,000 reagents; shown is a part drawn at random. Of all reagents, about 1,510 (2.6%) were called active. 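Calls use total luciferase alone and ignore viability, so some active siRNAs may act by altering cell number.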 A number with no mark means an inactive call. Reagents against one gene are numbered here. No sequences are given here.

target gene | reagent no. | total luciferase, z-score | total luciferase, % of control | luciferase per cell, z-score | viable cells, % of control
XKRX (GeneID 402415) | 1 | -0.831 | 65.4 | -0.795 | 90
XKRX (GeneID 402415) | 2 | -2.05 | 41.1 | -2.25 | 83
XKRX (GeneID 402415) | 3 | 3.38 (active) | 149 | 1.7 | 107
ZFP90 (GeneID 146198) | 1 | -0.3 | 75.9 | -0.477 | 96.2
ZFP90 (GeneID 146198) | 2 | 1.41 | 110 | 1.32 | 86.8
ZFP90 (GeneID 146198) | 3 | -1.14 | 59.1 | -1.02 | 86.5
FIP1L1 (GeneID 81608) | 1 | 0.184 | 85.5 | 0.749 | 78.5
FIP1L1 (GeneID 81608) | 2 | -0.48 | 72.3 | -0.631 | 95.4
FIP1L1 (GeneID 81608) | 3 | -1.05 | 61.1 | -0.774 | 83.7
EDA2R (GeneID 60401) | 1 | -0.93 | 63.4 | -0.218 | 75
EDA2R (GeneID 60401) | 2 | 0.603 | 93.9 | 0.113 | 102
EDA2R (GeneID 60401) | 3 | -0.597 | 70 | -0.629 | 92.3
PAAF1 (GeneID 80227) | 1 | 0.358 | 89 | -0.035 | 100
PAAF1 (GeneID 80227) | 2 | 0.0333 | 82.5 | 0.126 | 89.2
PAAF1 (GeneID 80227) | 3 | -0.584 | 70.3 | -0.267 | 84.3
EXOSC1 (GeneID 51013) | 1 | -0.164 | 78.6 | -0.06 | 89.3
EXOSC1 (GeneID 51013) | 2 | -0.419 | 73.5 | 0.058 | 80.9
EXOSC1 (GeneID 51013) | 3 | 0.973 | 101 | 1.25 | 81.3
SFTPC (GeneID 6440) | 1 | -0.745 | 67.1 | 0.513 | 65.5
SFTPC (GeneID 6440) | 2 | 1.2 | 106 | 0.839 | 94.8
SFTPC (GeneID 6440) | 3 | -0.612 | 69.7 | -0.867 | 97.9
STAC (GeneID 6769) | 1 | -0.596 | 70 | -0.299 | 84.7
STAC (GeneID 6769) | 2 | -0.653 | 68.9 | 2.01 | 45.4
STAC (GeneID 6769) | 3 | -0.166 | 78.6 | -0.413 | 97.9
CXCR1 (GeneID 3577) | 1 | 0.245 | 86.8 | 0.689 | 80.9
CXCR1 (GeneID 3577) | 2 | -0.434 | 73.3 | -0.571 | 95.1
CXCR1 (GeneID 3577) | 3 | -0.173 | 78.4 | -0.678 | 105
ZMYM6 (GeneID 9204) | 1 | -0.771 | 66.6 | 0.143 | 71.6
ZMYM6 (GeneID 9204) | 2 | -0.597 | 70 | -0.972 | 101
ZMYM6 (GeneID 9204) | 3 | 0.678 | 95.4 | 0.379 | 96.4
SEC24C (GeneID 9632) | 1 | 0.324 | 88.3 | -0.853 | 124
SEC24C (GeneID 9632) | 2 | 1.27 | 107 | 0.677 | 100
SEC24C (GeneID 9632) | 3 | -0.376 | 74.4 | -0.202 | 87.7
RPN1 (GeneID 6184) | 1 | 0.0661 | 83.2 | -0.316 | 101
RPN1 (GeneID 6184) | 2 | -0.318 | 75.6 | -0.428 | 94.5
RPN1 (GeneID 6184) | 3 | 0.821 | 98.2 | 0.66 | 92.3
PCDH20 (GeneID 64881) | 1 | -1.52 | 51.6 | -0.939 | 73.8
PCDH20 (GeneID 64881) | 2 | 3.52 (active) | 152 | 3.8 | 62.4
PCDH20 (GeneID 64881) | 3 | -0.624 | 69.5 | -0.545 | 89.6

5 entries from above, set out differently.
ZFP90 (GeneID 146198) #1 | total luciferase, z-score = -0.3; total luciferase, % of control = 75.9; luciferase per cell, z-score = -0.477; viable cells, % of control = 96.2
ZFP90 (GeneID 146198) #2 | total luciferase, z-score = 1.41; total luciferase, % of control = 110; luciferase per cell, z-score = 1.32; viable cells, % of control = 86.8
ZFP90 (GeneID 146198) #3 | total luciferase, z-score = -1.14; total luciferase, % of control = 59.1; luciferase per cell, z-score = -1.02; viable cells, % of control = 86.5
FIP1L1 (GeneID 81608) #1 | total luciferase, z-score = 0.184; total luciferase, % of control = 85.5; luciferase per cell, z-score = 0.749; viable cells, % of control = 78.5
FIP1L1 (GeneID 81608) #2 | total luciferase, z-score = -0.48; total luciferase, % of control = 72.3; luciferase per cell, z-score = -0.631; viable cells, % of control = 95.4
